Laboratory results: publication PMC9925823
These are yes or no findings as the source states them, for the method shown.

The chains behind the UniProt entries cited, without tags or fusion partners. Residues count along the entry.
UniProt P42081, residues 24-329: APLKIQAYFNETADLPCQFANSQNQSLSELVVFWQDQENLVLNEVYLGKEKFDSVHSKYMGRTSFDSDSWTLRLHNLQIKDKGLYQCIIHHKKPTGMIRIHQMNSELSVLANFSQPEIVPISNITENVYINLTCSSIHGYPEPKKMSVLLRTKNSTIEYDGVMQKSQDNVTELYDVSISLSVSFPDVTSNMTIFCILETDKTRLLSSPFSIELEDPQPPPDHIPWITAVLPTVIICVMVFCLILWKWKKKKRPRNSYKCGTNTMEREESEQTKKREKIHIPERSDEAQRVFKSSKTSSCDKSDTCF

Biological target: endogenous EGFR with a C-terminal SNAP tag (genome-edited SUM159 cells) (human (endogenous in SUM159)) (UniProt P00533)
Experiment: two-colour single-molecule tracking (TIRF) in live cells; SUM159 cells genome-edited for EGFR-SNAP, transiently expressing HaloTag-tagged proteins, EGF stimulation; fraction of Halo tracks that interact with EGFR-SNAP

binding: no binding
Substance: HaloTag-tagged CD86, transiently expressed (from UniProt P42081 24-329) (receptor)
